In paper PMC7593272:
Tags and fusion partners may be left off the protein sequences shown.

Target: T1, response regulator Awo_c25920 (Reg) (Acetobacterium woodii) (UniProt H6LEQ6)
T1 sequence (looked up): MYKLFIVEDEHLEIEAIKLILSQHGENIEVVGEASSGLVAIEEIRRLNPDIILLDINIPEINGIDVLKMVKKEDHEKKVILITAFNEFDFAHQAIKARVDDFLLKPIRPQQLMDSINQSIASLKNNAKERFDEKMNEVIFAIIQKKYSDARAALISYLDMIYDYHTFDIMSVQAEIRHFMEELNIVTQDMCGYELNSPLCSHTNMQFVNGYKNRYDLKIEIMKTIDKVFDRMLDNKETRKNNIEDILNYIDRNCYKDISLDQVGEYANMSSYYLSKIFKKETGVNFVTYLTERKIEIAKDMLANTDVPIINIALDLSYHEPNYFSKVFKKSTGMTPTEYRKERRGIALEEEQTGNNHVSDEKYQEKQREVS
Assay: EMSA
Conditions: protein phosphorylated with acetyl phosphate, 0-10 ug, 50 ng DNA, 5 mM MgCl2; EMSA in 12 ul buffer B: 50 mM Tris-HCl, 125 mM NaCl, 10 mM glycerol, 5 mM MgCl2, pH 7.8; 6% native PAGE in 1X TAE at 4 C, ethidium bromide stain; recombinant protein; residues 1-371; probe letters rebuilt from the primers and the genome

“ATAGTTCACAACTTTTGGATACTTAATTAGTATAATAGAATGGCATTTTTTTTGCAAGGTTTTTTTATAAAAAAAGCAGAAAAAAATAAATTTTTAATAGATAGCAATGTTTTGAATGGAAAAATACTGTTTAAAAGGCGTTATTTAAGAAAAAACGGTGATATTGCTTGCAACCTATAAAATACGGAAATGTTTAATTAAGAGGTGTCAAGAAAATATCTGCTTTATCAAAAATACGCATATATTCAAAAAAACGAAGCAATATAATACTGATACACAGCAAAATAGTCTAAAATGTCAAAAATAATGTCAAAAAATCCCTGTTTGTGTTATAATATTTTCAATGGAAAACGATTTTGAAATAAGAATTATGGGATTATTGTCTAAAGGGGTTGTTTT (double strand) [399 bp region upstream of Awo_c25930 (histidine kinase)]”: binds.
